# Some of the results follow.
# Test: inhibitors of triacylglycerol accumulation, primary screen, cell-based, uHTS, fluorescence, H9c2 (AID 651582)
# Settings: H9c2 cells, Nile Red lipid (TAG) fluorescence; DAPI nuclei count viability; at 12.5 µM; cells loaded with 200 µM oleic acid
row,Compound,DAPI activity (viability loss)
1,O=P(Nc1ccccn1)(c1ccc(Br)cc1)c1ccc(Br)cc1,2.74%

# — PubChem BioAssay AID651582 (Sanford-Burnham Center for Chemical Genomics, 2012)
